Laboratory results: patent US20100279941A1, “CD36 MODULATION AND USES THEREOF” (priority 2009, published 2010)

Test: Body and left ventricular weights after transient LCAL
Assay type: in vivo, mice
Settings: EP 80317 300 μg/kg/day s.c.; 48 hours after LCAL; effect in words

With “HAIC-2MeDTrp-DLys-Trp-DPhe-Lys-NH2 [EP 80317]” the “BW (body weight)” value was “did not modulate” and the LV/BW ratio was “did not modulate”.
